# Data reported in PMC12520690.
# Protein sequences, listed by entry. Tags and fused reporters are not part of them.
# UniProt Q811D0: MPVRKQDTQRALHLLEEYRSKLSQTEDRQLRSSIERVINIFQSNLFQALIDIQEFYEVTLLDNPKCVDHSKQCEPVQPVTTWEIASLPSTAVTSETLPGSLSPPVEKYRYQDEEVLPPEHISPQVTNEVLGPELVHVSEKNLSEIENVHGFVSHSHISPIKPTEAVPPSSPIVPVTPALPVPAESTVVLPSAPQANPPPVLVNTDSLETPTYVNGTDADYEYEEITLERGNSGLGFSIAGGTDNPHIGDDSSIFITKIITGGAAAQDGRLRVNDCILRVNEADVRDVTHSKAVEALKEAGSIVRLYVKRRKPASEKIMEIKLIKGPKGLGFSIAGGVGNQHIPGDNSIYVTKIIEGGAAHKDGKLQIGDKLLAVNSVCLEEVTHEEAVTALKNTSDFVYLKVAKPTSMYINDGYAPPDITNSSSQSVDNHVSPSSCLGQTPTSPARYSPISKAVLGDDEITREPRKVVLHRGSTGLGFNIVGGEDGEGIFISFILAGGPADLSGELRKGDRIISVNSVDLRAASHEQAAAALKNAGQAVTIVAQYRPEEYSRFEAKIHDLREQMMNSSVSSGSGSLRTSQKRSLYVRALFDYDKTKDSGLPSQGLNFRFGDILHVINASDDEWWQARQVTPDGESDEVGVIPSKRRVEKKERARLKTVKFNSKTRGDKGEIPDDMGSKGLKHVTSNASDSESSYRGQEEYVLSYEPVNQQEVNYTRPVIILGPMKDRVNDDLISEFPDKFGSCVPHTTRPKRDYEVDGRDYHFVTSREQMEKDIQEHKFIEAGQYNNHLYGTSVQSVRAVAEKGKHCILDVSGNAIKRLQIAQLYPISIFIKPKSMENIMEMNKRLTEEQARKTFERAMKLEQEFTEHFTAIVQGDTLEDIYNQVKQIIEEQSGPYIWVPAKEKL
# UniProt Q02248: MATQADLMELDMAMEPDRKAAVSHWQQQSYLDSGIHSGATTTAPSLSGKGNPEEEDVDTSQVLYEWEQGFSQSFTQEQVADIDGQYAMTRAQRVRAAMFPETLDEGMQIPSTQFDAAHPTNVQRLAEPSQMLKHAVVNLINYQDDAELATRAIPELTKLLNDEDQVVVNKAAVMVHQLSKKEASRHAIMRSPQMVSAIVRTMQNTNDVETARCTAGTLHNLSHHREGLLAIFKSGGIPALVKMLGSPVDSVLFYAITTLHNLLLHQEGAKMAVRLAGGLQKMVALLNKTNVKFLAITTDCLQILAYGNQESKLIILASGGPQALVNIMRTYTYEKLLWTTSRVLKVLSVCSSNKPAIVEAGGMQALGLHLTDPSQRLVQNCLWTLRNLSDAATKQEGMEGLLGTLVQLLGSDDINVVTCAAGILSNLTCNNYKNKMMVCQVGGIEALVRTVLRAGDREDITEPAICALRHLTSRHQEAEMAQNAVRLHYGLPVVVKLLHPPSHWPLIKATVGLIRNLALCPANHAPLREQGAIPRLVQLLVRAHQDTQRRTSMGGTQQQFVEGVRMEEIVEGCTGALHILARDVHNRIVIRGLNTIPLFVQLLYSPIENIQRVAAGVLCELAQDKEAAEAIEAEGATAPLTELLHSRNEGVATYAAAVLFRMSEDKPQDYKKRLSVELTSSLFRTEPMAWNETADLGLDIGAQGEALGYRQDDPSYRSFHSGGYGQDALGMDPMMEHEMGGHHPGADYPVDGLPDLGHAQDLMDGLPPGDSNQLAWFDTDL
# UniProt Q64727: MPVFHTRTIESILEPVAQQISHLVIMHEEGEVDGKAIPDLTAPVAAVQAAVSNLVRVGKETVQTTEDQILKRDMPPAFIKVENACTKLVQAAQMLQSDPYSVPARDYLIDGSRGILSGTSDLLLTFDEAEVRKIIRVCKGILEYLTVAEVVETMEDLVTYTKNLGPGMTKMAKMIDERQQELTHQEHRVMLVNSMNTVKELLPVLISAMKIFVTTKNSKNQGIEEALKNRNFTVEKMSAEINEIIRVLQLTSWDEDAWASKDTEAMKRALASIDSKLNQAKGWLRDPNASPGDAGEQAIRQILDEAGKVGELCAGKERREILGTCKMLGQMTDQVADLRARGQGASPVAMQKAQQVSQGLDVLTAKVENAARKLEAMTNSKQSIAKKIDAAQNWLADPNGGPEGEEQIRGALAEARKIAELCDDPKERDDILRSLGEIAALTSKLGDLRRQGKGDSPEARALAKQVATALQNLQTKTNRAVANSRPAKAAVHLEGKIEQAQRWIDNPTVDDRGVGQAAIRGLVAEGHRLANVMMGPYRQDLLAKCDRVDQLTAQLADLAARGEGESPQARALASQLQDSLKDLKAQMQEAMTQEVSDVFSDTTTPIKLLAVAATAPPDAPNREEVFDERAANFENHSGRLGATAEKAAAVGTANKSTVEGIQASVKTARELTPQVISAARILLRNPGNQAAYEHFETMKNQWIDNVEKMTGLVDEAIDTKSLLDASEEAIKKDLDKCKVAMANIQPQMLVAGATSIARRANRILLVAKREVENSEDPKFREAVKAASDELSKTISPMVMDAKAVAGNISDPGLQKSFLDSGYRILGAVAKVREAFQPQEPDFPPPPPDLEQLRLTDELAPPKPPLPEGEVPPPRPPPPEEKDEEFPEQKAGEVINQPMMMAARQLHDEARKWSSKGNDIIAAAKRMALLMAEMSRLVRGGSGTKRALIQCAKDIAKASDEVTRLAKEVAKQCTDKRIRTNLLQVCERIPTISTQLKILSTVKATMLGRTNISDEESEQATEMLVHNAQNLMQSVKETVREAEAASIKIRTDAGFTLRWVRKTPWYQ
# UniProt P23242: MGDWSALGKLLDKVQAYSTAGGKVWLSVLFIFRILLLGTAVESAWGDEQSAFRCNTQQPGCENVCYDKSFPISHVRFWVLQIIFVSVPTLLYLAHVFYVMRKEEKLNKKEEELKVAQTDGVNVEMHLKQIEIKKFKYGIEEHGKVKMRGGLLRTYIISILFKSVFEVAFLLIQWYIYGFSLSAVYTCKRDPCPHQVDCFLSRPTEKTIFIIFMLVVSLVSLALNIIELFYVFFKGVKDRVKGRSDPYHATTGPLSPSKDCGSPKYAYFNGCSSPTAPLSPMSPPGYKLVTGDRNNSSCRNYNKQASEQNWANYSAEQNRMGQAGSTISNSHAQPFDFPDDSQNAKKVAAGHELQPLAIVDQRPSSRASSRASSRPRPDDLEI
# No constants are given. Whether binding was seen depends on the method and setting. In cells and extracts the contact can be indirect. Here binding means that the protein was enriched with, or labelled near, the bait; the list need not be complete.
# Target: NaV1.5, endogenous in mouse heart (mouse (endogenous in heart)) (UniProt Q9JJV9)
# Test: affinity purification with mass spectrometry; NaV1.5 immunoprecipitated from WT or cFgf13^KO mouse hearts (n = 3 each); co-immunoprecipitated proteins identified by mass spectrometry; the named hits are depleted in KO compared with WT hearts
row,Substance,binding
1,protein encoded by Dlg1 (from UniProt Q811D0 1-905),binds
2,protein encoded by Ctnnb1 (from UniProt Q02248 1-781),binds
3,protein encoded by Vcl (from UniProt Q64727 1-1066),binds
4,protein encoded by Gja1 (from UniProt P23242 1-382),binds
